PubChem BioAssay AID192 (DTP/NCI, 2004)
The list is a part of this screen's results and no random one: it is rich in T/C values a quarter to a half above the control, in often repeated tests (any T/C) and in doses without a T/C. Further doses and runs are listed elsewhere. T/C gives the treated animals as a percentage of the vehicle group. Some doses have a count of surviving animals in place of a T/C: the source holds a T/C of zero for them, seemingly a mark for toxic or unscored doses. Some doses without a T/C left all or most animals alive at the check, yet need not have been tolerated: the source hardly ever lists a survival T/C far under the control, and the zero likely stands for such cases as well. Counts of survivors are from the toxicity check (mostly the fifth day) where no day follows; animals may have died later. Schedules are NCI's codes, taken here to give the interval after Q, in days (D) or hours (H), and the number of doses after X. Some doses were run more than once; their values stand side by side, smallest first. For survival time, this PubChem deposit counts one and a half times the control or more as active, and values a quarter to a half above the control carry no call in these data; other NCI protocols may use other cut-offs. Marks such as (2×) count equal records among those shown. Some T/C values carry the count of animals alive at the toxicity check (mostly the fifth day); where none is given, no animal had died by that day.

Test system: BDF1 mice, B16 melanoma ip, median survival T/C
Test: NCI In Vivo Anticancer Drug Screen. Data for tumor model B16 Melanoma (intraperitoneal) in B6D2F1 (BDF1) mice
Conditions: T/C endpoint: median survival time, higher T/C = longer survival
Procedure, shortened: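 Antitumor activity is assessed in mice bearing a transplanted tumor, with survival or tumor size compared against vehicle-dosed controls and expressed as T/C.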

[1] = dose: 25.0 mg/kg/injection, schedule: Q01DX009 (ip), vehicle: saline with Tween-80
[2] = dose: 25.0 mg/kg/injection, schedule: Q01DX009 (ip), vehicle: saline
[3] = dose: 50.0 mg/kg/injection, schedule: Q01DX009 (ip), vehicle: saline
[4] = dose: 100.0 mg/kg/injection, schedule: Q01DX009 (ip), vehicle: saline
[5] = dose: 300.0 mg/kg/injection, schedule: Q01DX001 (ip), vehicle: saline

`O=P1(N(CCCl)CCCl)NCCCO1` (stereo not given) was tested, and the T/C (dose: 6.25 mg/kg/injection, schedule: Q01DX009 (ip), vehicle: saline) was 94, 98, 98 [9 of 10 alive], 109 % of control [9 of 10 alive], the T/C (dose: 12.5 mg/kg/injection, schedule: Q01DX009 (ip), vehicle: saline) was 105, 106, 107, 110, 118 [9 of 10 alive], 121, 128 % of control and the T/C (dose: 12.5 mg/kg/injection, schedule: Q01DX017 (ip), vehicle: saline) was 125 % of control. For the same molecule, the T/C (dose: 20.0 mg/kg/injection, schedule: Q01DX009 (ip), vehicle: water) was 127 % of control, the survivor count (dose: 25.0 mg/kg/injection, schedule: Q01DX001 (ip), vehicle: saline) was 6 of 6 and the T/C (dose: 25.0 mg/kg/injection, schedule: Q01DX009 (ip), vehicle: Klucel (hydroxypropylcellulose) (HPC)) was 137 % of control. The T/C [1] was 127 % of control, the survivor count [1] was 6 of 6 and the T/C [2] was 94, 97, 102, 105 [5 of 6 alive], 108, 109, 110, 112, 117 (3×), 118, 119, 120, 121 (2×), 124, 125 (3×), 126, 128 (2×), 129, 130, 135 (2×), 136, 137 (2×), 138, 141, 147, 150 % of control. The survivor count [2] was 10 of 10 and 6 of 6, the T/C (dose: 25.0 mg/kg/injection, schedule: Q01DX009 (ip), vehicle: water) was 140 % of control and the T/C (dose: 25.0 mg/kg/injection, schedule: Q04DX005 (ip), vehicle: saline) was 127 % of control. The T/C (dose: 50.0 mg/kg/injection, schedule: Q01DX001 (ip), vehicle: saline, evaluated on day 5) was 110 % of control, the T/C (dose: 50.0 mg/kg/injection, schedule: Q01DX001 (ip), vehicle: saline, evaluated on day 60) was 107 (2×) and 118 % of control and the survivor count (dose: 50.0 mg/kg/injection, schedule: Q01DX001 (ip), vehicle: saline) was 6 of 6. The T/C (dose: 50.0 mg/kg/injection, schedule: Q01DX001 (ip), vehicle: water) was 127 % of control, the T/C (dose: 50.0 mg/kg/injection, schedule: Q01DX009 (ip), vehicle: Klucel (hydroxypropylcellulose) (HPC)) was 128 and 143 % of control and the survivor count (dose: 50.0 mg/kg/injection, schedule: Q01DX009 (ip), vehicle: saline with Tween-80) was 6 of 6. For the same molecule, the T/C [3] was 95, 100, 105, 107, 112, 119, 123 [5 of 6 alive], 125, 126, 129, 130, 131, 139, 145, 146, 147, 152, 154, 161, 162, 165 (2×), 167, 175, 202 % of control, the survivor count [3] was 6 of 10 and 6 of 6 and the T/C (dose: 50.0 mg/kg/injection, schedule: Q02DX009 (ip), vehicle: saline) was 134, 147, 149 % of control. The T/C (dose: 50.0 mg/kg/injection, schedule: Q04DX003 (ip), vehicle: saline) was 128 % of control, the T/C (dose: 50.0 mg/kg/injection, schedule: Q08DX002 (ip), vehicle: saline) was 127 and 128 % of control and the T/C (dose: 50.0 mg/kg/injection, schedule: Q08DX003 (ip), vehicle: saline) was 133 % of control. For the same molecule, the T/C (dose: 60.0 mg/kg/injection, schedule: Q04DX003 (ip), vehicle: saline) was 133 % of control, the T/C (dose: 62.22 mg/kg/injection, schedule: Q04DX003 (ip), vehicle: saline) was 139 % of control and the T/C (dose: 64.8 mg/kg/injection, schedule: Q08DX002 (ip), vehicle: saline) was 137 % of control. For the same molecule, the T/C (dose: 75.0 mg/kg/injection, schedule: Q01DX001 (ip), vehicle: Klucel (hydroxypropylcellulose) (HPC)) was 128 % of control, the T/C (dose: 75.0 mg/kg/injection, schedule: Q01DX001 (ip), vehicle: saline with Tween-80, evaluated on day 45) was 105, 109, 110, 115 % of control and the T/C (dose: 75.0 mg/kg/injection, schedule: Q01DX001 (ip), vehicle: saline with Tween-80, evaluated on day 60) was 105 and 109 % of control. For the same molecule, the T/C (dose: 75.0 mg/kg/injection, schedule: Q01DX001 (ip), vehicle: saline) was 100, 102, 105, 106, 109, 109 [5 of 6 alive], 110, 110 [5 of 6 alive], 111 (3×), 113, 116, 117, 119, 120, 121 (4×), 122, 128, 131, 137, 140 % of control, the survivor count (dose: 75.0 mg/kg/injection, schedule: Q01DX009 (ip), vehicle: saline) was 6 of 6 and the T/C (dose: 100.0 mg/kg/injection, schedule: Q01DX001 (ip), vehicle: saline, evaluated on day 5) was 127 % of control. For the same molecule, the T/C (dose: 100.0 mg/kg/injection, schedule: Q01DX001 (ip), vehicle: saline, evaluated on day 60) was 126 and 134 % of control (2×), the survivor count (dose: 100.0 mg/kg/injection, schedule: Q01DX001 (ip), vehicle: saline) was 6 of 6 and the T/C (dose: 100.0 mg/kg/injection, schedule: Q01DX001 (ip), vehicle: water) was 145 % of control. For the same molecule, the T/C (dose: 100.0 mg/kg/injection, schedule: Q01DX009 (ip), vehicle: Klucel (hydroxypropylcellulose) (HPC)) was 143 % of control, the survivor count (dose: 100.0 mg/kg/injection, schedule: Q01DX009 (ip), vehicle: saline with Tween-80) was 6 of 6 and the T/C [4] was 87, 92, 95, 97, 100, 104, 105, 107 [5 of 6 alive], 117 (2×), 122, 129, 130, 157, 158, 167 % of control. The survivor count [4] was 6 of 10, 7 of 10, 5 of 6, 9 of 10, 10 of 10, 6 of 6, 7 of 7, the survivor count (dose: 100.0 mg/kg/injection, schedule: Q01DX009 (ip), vehicle: water) was 5 of 5 and the T/C (dose: 100.0 mg/kg/injection, schedule: Q02DX009 (ip), vehicle: saline) was 133 % of control. The T/C (dose: 100.0 mg/kg/injection, schedule: Q08DX002 (ip), vehicle: saline, evaluated on day 5) was 132 and 143 % of control, the T/C (dose: 100.0 mg/kg/injection, schedule: Q08DX002 (ip), vehicle: saline, evaluated on day 60) was 156 and 159 % of control and the T/C (dose: 150.0 mg/kg/injection, schedule: Q01DX001 (ip), vehicle: Klucel (hydroxypropylcellulose) (HPC)) was 125 and 146 % of control. For the same molecule, the T/C (dose: 150.0 mg/kg/injection, schedule: Q01DX001 (ip), vehicle: saline with Tween-80, evaluated on day 45) was 115, 128, 130, 135 % of control, the T/C (dose: 150.0 mg/kg/injection, schedule: Q01DX001 (ip), vehicle: saline with Tween-80, evaluated on day 60) was 105 and 111 % of control and the T/C (dose: 150.0 mg/kg/injection, schedule: Q01DX001 (ip), vehicle: saline) was 107, 111, 113, 115, 116, 118, 126, 127, 127 [5 of 6 alive], 131, 132, 133, 135, 138, 140, 141, 141 [5 of 6 alive], 142, 144, 145, 150, 152, 156, 167, 177 % of control. The survivor count (dose: 150.0 mg/kg/injection, schedule: Q01DX009 (ip), vehicle: saline) was 6 of 6, the T/C (dose: 200.0 mg/kg/injection, schedule: Q01DX001 (ip), vehicle: saline, evaluated on day 5) was 156 % of control and the T/C (dose: 200.0 mg/kg/injection, schedule: Q01DX001 (ip), vehicle: saline, evaluated on day 10) was 139 % of control. The T/C (dose: 200.0 mg/kg/injection, schedule: Q01DX001 (ip), vehicle: saline, evaluated on day 60) was 153 [9 of 10 alive], 156, 163 % of control, the survivor count (dose: 200.0 mg/kg/injection, schedule: Q01DX009 (ip), vehicle: saline) was 5 of 6, 10 of 10, 6 of 6, 7 of 7 and the survivor count (dose: 200.0 mg/kg/injection, schedule: Q02DX009 (ip), vehicle: saline) was 10 of 10. For the same molecule, the survivor count (dose: 200.0 mg/kg/injection, schedule: Q04DX003 (ip), vehicle: saline) was 10 of 10, the survivor count (dose: 200.0 mg/kg/injection, schedule: Q04DX005 (ip), vehicle: saline) was 10 of 10 and the T/C (dose: 200.0 mg/kg/injection, schedule: Q08DX002 (ip), vehicle: saline, evaluated on day 5) was 183 % of control (2×). The T/C (dose: 200.0 mg/kg/injection, schedule: Q08DX002 (ip), vehicle: saline, evaluated on day 60) was 91 and 210 % of control, the T/C (dose: 200.0 mg/kg/injection, schedule: Q08DX003 (ip), vehicle: saline) was 128 % of control and the survivor count (dose: 240.0 mg/kg/injection, schedule: Q04DX003 (ip), vehicle: saline) was 10 of 10. For the same molecule, the survivor count (dose: 300.0 mg/kg/injection, schedule: Q01DX001 (ip), vehicle: Klucel (hydroxypropylcellulose) (HPC)) was 5 of 6, the T/C (dose: 300.0 mg/kg/injection, schedule: Q01DX001 (ip), vehicle: saline with Tween-80, evaluated on day 45) was 140, 160 [5 of 6 alive], 161 % of control and the T/C (dose: 300.0 mg/kg/injection, schedule: Q01DX001 (ip), vehicle: saline with Tween-80, evaluated on day 60) was 107 and 144 % of control. For the same molecule, the survivor count (dose: 300.0 mg/kg/injection, schedule: Q01DX001 (ip), vehicle: saline with Tween-80) was 5 of 6, the T/C [5] was 97 [4 of 6 alive], 105, 119 [4 of 6 alive], 125, 128 (2×), 133 [5 of 6 alive], 145, 147 [4 of 6 alive], 159 (2×), 160, 164 (2×), 165, 167, 178, 211 % of control and the survivor count [5] was 2 of 6, 3 of 6, 5 of 6, 6 of 6. For the same molecule, the survivor count (dose: 300.0 mg/kg/injection, schedule: Q01DX001 (ip), vehicle: water) was 9 of 10, the survivor count (dose: 300.0 mg/kg/injection, schedule: Q01DX009 (ip), vehicle: saline) was 5 of 6 and the T/C (dose: 400.0 mg/kg/injection, schedule: Q01DX001 (ip), vehicle: saline, evaluated on day 5) was 42 % of control. For the same molecule, the T/C (dose: 400.0 mg/kg/injection, schedule: Q01DX001 (ip), vehicle: saline, evaluated on day 60) was 107 % of control [9 of 10 alive], the survivor count (dose: 400.0 mg/kg/injection, schedule: Q01DX001 (ip), vehicle: saline) was 8 of 10 and the survivor count (dose: 400.0 mg/kg/injection, schedule: Q02DX009 (ip), vehicle: saline) was 4 of 10. The survivor count (dose: 400.0 mg/kg/injection, schedule: Q04DX003 (ip), vehicle: saline) was 6 of 10, the survivor count (dose: 400.0 mg/kg/injection, schedule: Q08DX002 (ip), vehicle: saline) was 1 of 10 and 10 of 10 and the survivor count (dose: 400.0 mg/kg/injection, schedule: Q08DX003 (ip), vehicle: saline) was 7 of 10.
